The values that follow come from patent US20040009921A1, “Methods and compositions for the treatment of cancer” (Allergan, Inc., priority 2002, published 2004).

Chains of the proteins cited; added tags and fusions are not shown.
UniProt P19793: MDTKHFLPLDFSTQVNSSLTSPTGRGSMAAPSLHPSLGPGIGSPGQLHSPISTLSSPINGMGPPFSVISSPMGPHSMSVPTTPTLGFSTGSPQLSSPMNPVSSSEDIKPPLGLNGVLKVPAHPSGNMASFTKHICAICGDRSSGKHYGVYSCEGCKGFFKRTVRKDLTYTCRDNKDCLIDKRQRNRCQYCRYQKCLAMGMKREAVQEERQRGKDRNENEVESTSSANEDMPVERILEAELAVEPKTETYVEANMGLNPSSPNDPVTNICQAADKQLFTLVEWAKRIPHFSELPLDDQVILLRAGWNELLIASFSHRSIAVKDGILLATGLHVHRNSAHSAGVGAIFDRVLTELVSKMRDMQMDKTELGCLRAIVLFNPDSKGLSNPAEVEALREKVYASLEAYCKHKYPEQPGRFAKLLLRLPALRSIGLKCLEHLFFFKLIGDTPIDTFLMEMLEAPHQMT

The target in this assay is Human RXRα (clone from a human keratinocyte cDNA library, yeast two-hybrid prey) (human) (UniProt P19793). The assay can be described thus: yeast two-hybrid screen, RARγ as bait.

Results are given in words; binding and its absence hold for the method and conditions named. Some results given as binding are weak or reduced against the parent protein; the word gives no strength.

B1: RARγ (yeast two-hybrid bait) (receptor, UniProt P13631 1-454, looked up)
chain: MATNKERLFAAGALGPGSGYPGAGFPFAFPGALRGSPPFEMLSPSFRGLGQPDLPKEMASLSVETQSTSSEEMVPSSPSPPPPPRVYKPCFVCNDKSSGYHYGVSSCEGCKGFFRRSIQKNMVYTCHRDKNCIINKVTRNRCQYCRLQKCFEVGMSKEAVRNDRNKKKKEVKEEGSPDSYELSPQLEELITKVSKAHQETFPSLCQLGKYTTNSSADHRVQLDLGLWDKFSELATKCIIKIVEFAKRLPGFTGLSIADQITLLKAACLDILMLRICTRYTPEQDTMTFSDGLTLNRTQMHNAGFGPLTDLVFAFAGQLLPLEMDDTETGLLSAICLICGDRMDLEEPEKVDKLQEPLLEALRLYARRRRPSQPYMFPRMLMKITDLRGISTKGAERAITLKMEIPGPMPPLIREMLENPEMFEDDSSQPGPHPNASSEDEVPGGQGKGGLKSPA
As for B1, the binding entry is recorded as “binds”.
